The values that follow come from article PMC9124216.

The target of the assay is T1, HA-tagged CD151 (UniProt P48509).
T1 sequence: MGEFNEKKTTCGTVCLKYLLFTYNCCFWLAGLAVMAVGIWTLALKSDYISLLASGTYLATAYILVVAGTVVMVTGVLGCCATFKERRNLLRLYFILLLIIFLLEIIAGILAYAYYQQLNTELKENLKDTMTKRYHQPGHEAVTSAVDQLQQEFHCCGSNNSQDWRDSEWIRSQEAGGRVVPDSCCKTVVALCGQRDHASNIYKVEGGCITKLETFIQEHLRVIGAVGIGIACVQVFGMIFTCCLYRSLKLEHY
Description: co-IP; Flag-tagged ADAM15 and HA-tagged CD151 vectors cotransfected into A549 and H1299 cells for 48 h; immunoprecipitated using agarose beads with anti-Flag antibody; western blot. On the technique in general: A western blot detects proteins with antibodies after separation by electrophoresis.

No constants are given. Whether binding was seen depends on the method and setting. In cells and extracts the contact can be indirect. A result given as binding can be weak or reduced; the word gives no strength. Sequences can lack the tags named with a protein.

For “Integrin α6 (human (endogenous in A549 and H1299)) (receptor)”, the binding result was “binds”.
